These are yes or no findings as the source states them, for the method shown. Binding seen in cells or lysates may run through a third protein. Some binding calls cover weakened binding; strength is not graded here.

The chains behind the UniProt entries cited, without tags or fusion partners.
UniProt Q62296: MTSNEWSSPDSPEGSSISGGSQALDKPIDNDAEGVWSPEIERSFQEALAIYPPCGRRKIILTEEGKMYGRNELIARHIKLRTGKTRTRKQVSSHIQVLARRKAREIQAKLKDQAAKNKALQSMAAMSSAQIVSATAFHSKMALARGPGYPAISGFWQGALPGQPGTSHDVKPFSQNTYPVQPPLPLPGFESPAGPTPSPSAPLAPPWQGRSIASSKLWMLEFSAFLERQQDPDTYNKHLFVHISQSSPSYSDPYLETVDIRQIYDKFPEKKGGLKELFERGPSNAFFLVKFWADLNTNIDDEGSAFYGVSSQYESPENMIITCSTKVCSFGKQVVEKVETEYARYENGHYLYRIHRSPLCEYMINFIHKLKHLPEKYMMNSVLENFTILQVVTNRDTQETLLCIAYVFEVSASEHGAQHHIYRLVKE
UniProt P46938: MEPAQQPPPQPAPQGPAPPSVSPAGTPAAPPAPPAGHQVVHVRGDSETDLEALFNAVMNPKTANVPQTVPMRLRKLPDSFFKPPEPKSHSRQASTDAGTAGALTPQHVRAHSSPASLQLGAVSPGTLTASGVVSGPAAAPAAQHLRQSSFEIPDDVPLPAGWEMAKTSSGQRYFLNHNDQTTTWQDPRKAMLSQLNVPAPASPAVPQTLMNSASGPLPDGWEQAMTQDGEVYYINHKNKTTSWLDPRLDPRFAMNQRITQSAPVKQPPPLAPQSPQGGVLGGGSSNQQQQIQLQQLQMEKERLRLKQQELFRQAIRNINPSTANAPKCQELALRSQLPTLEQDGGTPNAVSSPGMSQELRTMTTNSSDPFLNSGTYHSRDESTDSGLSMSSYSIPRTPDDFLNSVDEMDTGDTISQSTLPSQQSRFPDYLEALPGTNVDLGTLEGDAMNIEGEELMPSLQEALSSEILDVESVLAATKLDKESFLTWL
UniProt Q61312: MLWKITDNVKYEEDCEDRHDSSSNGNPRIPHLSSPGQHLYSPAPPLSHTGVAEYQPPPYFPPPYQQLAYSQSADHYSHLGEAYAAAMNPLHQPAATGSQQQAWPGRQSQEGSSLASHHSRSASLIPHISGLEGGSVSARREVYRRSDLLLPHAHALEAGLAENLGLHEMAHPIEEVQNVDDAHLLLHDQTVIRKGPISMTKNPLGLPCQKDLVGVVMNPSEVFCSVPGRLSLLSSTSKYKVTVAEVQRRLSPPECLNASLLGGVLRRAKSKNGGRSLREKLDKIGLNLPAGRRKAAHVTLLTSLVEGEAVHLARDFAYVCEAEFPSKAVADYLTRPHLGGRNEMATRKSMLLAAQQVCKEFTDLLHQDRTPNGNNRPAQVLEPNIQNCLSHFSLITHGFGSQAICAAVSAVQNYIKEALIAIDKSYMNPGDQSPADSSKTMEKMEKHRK

Holding throughout (assay): co-IP
The target in experiment [1] is Myc-TEAD4 (UniProt Q62296).
Experiment [2] deals with Flag-YAP1 (UniProt P46938).
Experiment [3] concerns the target GFP-AP-2γ (UniProt Q61312).

Regarding GFP-AP-2γ (from UniProt Q61312 1-449), the binding entry in experiment [1] and in experiment [2] was “binds” throughout.
In the case of Myc-TEAD4 (from UniProt Q62296 1-427), the binding result in experiment [3] and in experiment [2] was “binds” each time.
Take Flag-YAP1 (from UniProt P46938 1-488): the binding result in experiment [1] and in experiment [3] was “binds” throughout.
